Reference: patent publication US20140242068A1 (EMORY UNIVERSITY, published 2014)

Tests used:
[1] = molecular target: soluble full length JAML.D1D2-His (sJAML-His) (human); experiment: ELISA, antigen coated at 5 µg/ml, antibody 10 µg/ml
[2] = molecular target: full length JAML tagged at the C-terminus with 6xMyc, on CHO cells (CHO JAML-6xMyc) (human); experiment: flow cytometry on CHO JAML-6xMyc cells
[3] = molecular target: full length JAML tagged at the C-terminus with 10 His, on CHO cells (CHO-JAML-His) (human); experiment: flow cytometry on CHO-JAML-His cells
[4] = molecular target: soluble full length JAML.D1D2-His (sJAML-His) (human); experiment: ELISA on coated JAML fragments
[5] = molecular target: full length JAML tagged at the C-terminus with 10 His, on CHO cells (CHO-JAML-His) (human); experiment: immunoprecipitation from biotinylated cell lysates, streptavidin blot

Measured: binding

B1: DW100 (antibody, IgG1, V domains shown)
VH: DVQLVESGAELVRPGASVKLSCKALAYTFTDYEMHWVKQTPVHGLEWIGIIHPGSGGTVYNQKFKGKATLTADKSSSTAYMELSSLTSEDSTVYYCTRRRYYGSSYWYFDVWGAGN
VL: VLTQSPASLAASVGETVTITCRASENIYYSLAWYQQKQGKSPQLLIYNANSLEDGVPSRFSGSGSGTQYSLKINSMQPEDTATYFCEQTYDVPLTFGAGTKLEL
notes: also called DW100 mAb; anti-JAML monoclonal antibody DW100
not listed: [5]
binds: all other assays above

B2: DW216 (antibody, IgG1, V domains shown)
VH: DVQLVESGPGLVKPSQSLSLTCTVTGYSITSDYAWNWIRQFPGNKLEWMGYISSSGNSNYNPSLKSRISITRDTSKNQFFLQLNSVTTEDTATYYCAGATGYSMDYWGQGTTLTVK
VL: VLTQSPAIMSASLGERVTMTCTASSSVSSSYLHWYQQKPGSSPKLWIYSTSNLASGVPARFSGSGSGTSYSLTISSMEAEDAATYYCHQYHRSPFTFGSGTKLELK
notes: also called DW216 mAb; H3L3
binds: all assays above

These are yes or no findings as the source states them, for the method shown. Binding calls can cover weak binding; strength is not graded here.
